Experimental data as given in PubChem BioAssay AID1487 (National Center for Advancing Translational Sciences (NCATS), 2009).
The other results are listed elsewhere or left out. The main result of the screen is listed elsewhere. These columns were measured beside it and carry no call. The list favours compounds with an active or inconclusive main result. Potencies come from curve fits of mixed quality, noted in brackets.

Test: qHTS Assay for Modulators of Lamin A Splicing
Conditions: HeLa LMNA splicing GFP/RFP minigene ratio, 48 h
Procedure, shortened: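 S3 HeLa stable clones carrying a lamin A-EGFP splicing minigene plus DsRed2 were seeded at 600 cells/well in Opti-MEM with 2% FBS, pin-dosed and incubated 48 h at 37°C. Acumen cytometry (488 nm) gave the GFP/RFP total-intensity ratio.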

[1] = measured here: RFP viability control channel
[2] = measured here: GFP splicing reporter channel

| SMILES | AC50 [1] | AC50 [2] |
| --- | --- | --- |
| N#C/C(=C\c1cccc([N+](=O)[O-])c1)C(=O)NCc1ccc(Cl)cc1 | 14.1 µM [rising, single point] | – |
| CC1=C(C(=O)OCc2ccccc2)C(c2ccccc2-c2ccccc2)NC(=O)N1CCCCCC(=O)O (centres undefined) | 25.1 µM [rising, single point] | 14.1 µM [rising, single point] |
| Oc1c(Cl)cc(Cl)c(Cl)c1Cc1c(O)c(Cl)cc(Cl)c1Cl | 2 µM [rising, full curve] | 5.01 µM [rising, partial curve] |
| Cc1c(N(C)C)c(=O)n(-c2ccccc2)n1C | 0.0631 µM [falling, full curve, poor fit] | 0.0708 µM [falling, full curve] |
| CCOC(=O)N1CCN(S(=O)(=O)c2ccc3[nH]c(=O)sc3c2)CC1 | 35.5 µM [rising, single point] | 35.5 µM [rising, single point] |
| Cc1cc(Cl)ccc1C(=O)C1CCCN(C(=O)/C=C/c2cnn(C)c2)C1 (centres undefined) | 35.5 µM [falling, single point] | – |
| CC(NCc1ccc(S(N)(=O)=O)cc1)C(=O)Nc1cc([N+](=O)[O-])ccc1Cl (centres undefined) | – | 6.31 µM [rising, partial curve, poor fit] |
| Cc1c(Cl)c([N+](=O)[O-])nn1Cc1ccc(C(=O)N/N=C\c2ccccn2)o1 | 14.1 µM [rising, single point] | 12.6 µM [rising, single point] |
| CCCc1c(-c2ccc(O)cc2)nn(-c2ccc(O)cc2)c1-c1ccc(O)cc1 | 3.16 µM [falling, full curve, poor fit] | 3.55 µM [falling, full curve, poor fit] |
| CCOc1ccc2[nH]c(=O)c(C(c3nnnn3C3CCCCC3)N3CCN(CC)CC3)cc2c1 (centres undefined) | 35.5 µM [rising, single point] | 35.5 µM [rising, single point] |
| CCOC(=O)C(C(=O)OCC)C(Nc1ccc(Br)cc1)c1ccccc1 (centres undefined) | 35.5 µM [falling, single point] | 35.5 µM [falling, single point] |
| CCOC(=O)/C(C#N)=C1\Nc2ccccc2N=C1N(CC(C)C)CC(C)C | 5.62 µM [falling, single point] | 5.62 µM [falling, single point] |
| O=C(NCc1cccnc1)/C(=C\c1ccc(-c2cccc(Cl)c2)o1)S(=O)(=O)c1ccccc1 | – | 6.31 µM [falling, full curve] |
| CC(Oc1cccc(NC(=O)c2cccs2)c1)C(=O)c1ccccc1 (centres undefined) | 2.82 µM [rising, full curve, poor fit] | 3.16 µM [rising, single point] |
| COc1ccc(NC(=O)c2c(NCc3sccc3C)sc3c2CCCCC3)c(OC)c1 | 35.5 µM [rising, single point] | 35.5 µM [rising, single point] |
| O=C(NCCc1ccc2c(c1)OCCO2)c1ccc(F)cc1 | 35.5 µM [rising, single point] | 31.6 µM [rising, single point] |
| CCCCC[C@H](O)/C=C/C1=C(CCCCCCC(=O)O)C(=O)CC1 | 2.51 µM [rising, partial curve] | 0.0447 µM [rising, full curve, poor fit] |
| O=[N+]([O-])c1ccc(N2CCN(C(=S)Nc3cccc(F)c3)CC2)cc1 | – | 5.62 µM [falling, single point] |
| Cc1c(C(=O)NCCC2=CCCCC2)oc2ccc(S(=O)(=O)N3CCOCC3)cc12 | 17.8 µM [rising, partial curve, poor fit] | 11.2 µM [rising, partial curve] |
| COc1ccc(/C(C)=N\O)cc1OC | – | 0.501 µM [rising, full curve, poor fit] |
| CCCSc1ccc2nc(-c3ccccc3)cn2c1 | 35.5 µM [rising, single point] | – |
| COc1cc(/C=C(\C#N)c2nn(CCO)c(N)c2C#N)cc(OC)c1OC | 1 µM [falling, partial curve, poor fit] | 35.5 µM [falling, single point] |
| Cc1cccc(-n2c(O)c(C=Nc3ccc4c(c3)OCO4)c3ccccc3c2=O)n1 | 12.6 µM [rising, partial curve] | 14.1 µM [rising, partial curve] |

A second format for part of the listing above.
SMILES	AC50 [1]	AC50 [2]
CC(Oc1cccc(NC(=O)c2cccs2)c1)C(=O)c1ccccc1 (centres undefined)	2.82 µM [rising, full curve, poor fit]	3.16 µM [rising, single point]
COc1ccc(NC(=O)c2c(NCc3sccc3C)sc3c2CCCCC3)c(OC)c1	35.5 µM [rising, single point]	35.5 µM [rising, single point]
